This series in a line: Percent change in body weight in STZ induced diabetic mouse model (Example 2). Type of series: in vivo, mouse (C57Bl/6). The conditions noted are these: 50 μg/kg body weight SC for twenty eight days; FIG. 5. As to the method: C57Bl/6 female mice, 6-7 weeks old were used for the study and conditions were the same as for Example 1 above unless otherwise specified. Following acclimatization, mice were dosed intraperitoneally (IP) with 50 mg/kg STZ solubilized in 0.05 M sodium citrate buffer at a volume of 100 μl per mouse for five consecutive days. Blood Glucose levels were monitored on day 6 post STZ using Accu check glucose meter. Mice were grouped having average blood glucose levels of 200 mg/dL. There were three groups of ten mice each. Mice were dosed subcutaneously with Linear PanCyte (SEQ ID NO:6), PanCyte or vehicle for twenty-eight days.
Linear PanCyte and PanCyte were prepared in saline and administrated subcutaneously at a dose volume of 100 μl/mouse daily for twenty-eight days. Dosing solutions were prepared fresh every three days.

With “Asp^1-Arg^2-Val^3-Ser^4-Ile^5-His^6-Cys^7 [Linear-PanCyte] (DRVSIHC; linear)”, the “Percent body weight change as compared to vehicle” value was “No significant differences”.
As to “Asp^1-Arg^2-Val^3-Ser^4-Ile^5-His^6-Cys^7 [PanCyte] (DRVSIHC; cyclised Ser4-Cys7 linkage)”, the “Percent body weight change as compared to vehicle” value is on record as “No significant differences”.
